The test addresses T1, enhanced green fluorescent protein-tagged mouse 2B4 (m2B4-EGFP) (mouse) (UniProt Q07763).
T1 sequence: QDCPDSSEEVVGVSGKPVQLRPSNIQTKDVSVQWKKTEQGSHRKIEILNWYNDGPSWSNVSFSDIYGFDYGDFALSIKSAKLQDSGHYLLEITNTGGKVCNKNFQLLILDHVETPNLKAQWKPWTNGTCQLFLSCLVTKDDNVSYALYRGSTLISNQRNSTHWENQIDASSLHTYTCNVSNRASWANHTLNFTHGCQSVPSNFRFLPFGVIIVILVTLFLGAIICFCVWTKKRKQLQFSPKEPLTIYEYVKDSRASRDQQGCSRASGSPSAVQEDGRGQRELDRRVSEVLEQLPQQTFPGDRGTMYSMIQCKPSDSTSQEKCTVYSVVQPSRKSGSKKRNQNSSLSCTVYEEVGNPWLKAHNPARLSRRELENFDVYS
As to the kind of experiment: co-IP; 2D12 cells expressing 2B4-EGFP and Fyn-HaloTag, not transduced or transduced with SAP, stimulated by mCD48-deleted or mCD48-expressing EL-4 cells prepulsed by MCC88-103; lysis buffer 50 mM Tris-HCl, 50 mM NaCl, 5 mM EDTA, 1% NP-40; immunoprecipitated for 2B4 by anti-GFP (RQ2); blotted with anti-SAP, anti-Fyn.

Results are given in words; binding and its absence hold for the method and conditions named. Binding seen in cells or lysates may run through a third protein. Some results given as binding are weak or reduced against the parent protein; the word gives no strength. Where a sequence is shown, tags or fusion partners need not be part of it.

B1: SLAM-associated protein (SAP) (protein, UniProt O88890 1-126)
chain: MDAVTVYHGKISRETGEKLLLATGLDGSYLLRDSESVPGVYCLCVLYQGYIYTYRVSQTETGSWSAETAPGVHKRFFRKVKNLISAFQKPDQGIVTPLQYPVEKSSGRGPQAPTGRRDSDICLNAP
For B1, the binding entry is reported as “binds”.

Source of the values: paper PMC11780131.
